# Measured values: patent US20040235018A1
# Sequences of proteins named here, by UniProt entry; tags and fusion partners are left off.
# UniProt P42694: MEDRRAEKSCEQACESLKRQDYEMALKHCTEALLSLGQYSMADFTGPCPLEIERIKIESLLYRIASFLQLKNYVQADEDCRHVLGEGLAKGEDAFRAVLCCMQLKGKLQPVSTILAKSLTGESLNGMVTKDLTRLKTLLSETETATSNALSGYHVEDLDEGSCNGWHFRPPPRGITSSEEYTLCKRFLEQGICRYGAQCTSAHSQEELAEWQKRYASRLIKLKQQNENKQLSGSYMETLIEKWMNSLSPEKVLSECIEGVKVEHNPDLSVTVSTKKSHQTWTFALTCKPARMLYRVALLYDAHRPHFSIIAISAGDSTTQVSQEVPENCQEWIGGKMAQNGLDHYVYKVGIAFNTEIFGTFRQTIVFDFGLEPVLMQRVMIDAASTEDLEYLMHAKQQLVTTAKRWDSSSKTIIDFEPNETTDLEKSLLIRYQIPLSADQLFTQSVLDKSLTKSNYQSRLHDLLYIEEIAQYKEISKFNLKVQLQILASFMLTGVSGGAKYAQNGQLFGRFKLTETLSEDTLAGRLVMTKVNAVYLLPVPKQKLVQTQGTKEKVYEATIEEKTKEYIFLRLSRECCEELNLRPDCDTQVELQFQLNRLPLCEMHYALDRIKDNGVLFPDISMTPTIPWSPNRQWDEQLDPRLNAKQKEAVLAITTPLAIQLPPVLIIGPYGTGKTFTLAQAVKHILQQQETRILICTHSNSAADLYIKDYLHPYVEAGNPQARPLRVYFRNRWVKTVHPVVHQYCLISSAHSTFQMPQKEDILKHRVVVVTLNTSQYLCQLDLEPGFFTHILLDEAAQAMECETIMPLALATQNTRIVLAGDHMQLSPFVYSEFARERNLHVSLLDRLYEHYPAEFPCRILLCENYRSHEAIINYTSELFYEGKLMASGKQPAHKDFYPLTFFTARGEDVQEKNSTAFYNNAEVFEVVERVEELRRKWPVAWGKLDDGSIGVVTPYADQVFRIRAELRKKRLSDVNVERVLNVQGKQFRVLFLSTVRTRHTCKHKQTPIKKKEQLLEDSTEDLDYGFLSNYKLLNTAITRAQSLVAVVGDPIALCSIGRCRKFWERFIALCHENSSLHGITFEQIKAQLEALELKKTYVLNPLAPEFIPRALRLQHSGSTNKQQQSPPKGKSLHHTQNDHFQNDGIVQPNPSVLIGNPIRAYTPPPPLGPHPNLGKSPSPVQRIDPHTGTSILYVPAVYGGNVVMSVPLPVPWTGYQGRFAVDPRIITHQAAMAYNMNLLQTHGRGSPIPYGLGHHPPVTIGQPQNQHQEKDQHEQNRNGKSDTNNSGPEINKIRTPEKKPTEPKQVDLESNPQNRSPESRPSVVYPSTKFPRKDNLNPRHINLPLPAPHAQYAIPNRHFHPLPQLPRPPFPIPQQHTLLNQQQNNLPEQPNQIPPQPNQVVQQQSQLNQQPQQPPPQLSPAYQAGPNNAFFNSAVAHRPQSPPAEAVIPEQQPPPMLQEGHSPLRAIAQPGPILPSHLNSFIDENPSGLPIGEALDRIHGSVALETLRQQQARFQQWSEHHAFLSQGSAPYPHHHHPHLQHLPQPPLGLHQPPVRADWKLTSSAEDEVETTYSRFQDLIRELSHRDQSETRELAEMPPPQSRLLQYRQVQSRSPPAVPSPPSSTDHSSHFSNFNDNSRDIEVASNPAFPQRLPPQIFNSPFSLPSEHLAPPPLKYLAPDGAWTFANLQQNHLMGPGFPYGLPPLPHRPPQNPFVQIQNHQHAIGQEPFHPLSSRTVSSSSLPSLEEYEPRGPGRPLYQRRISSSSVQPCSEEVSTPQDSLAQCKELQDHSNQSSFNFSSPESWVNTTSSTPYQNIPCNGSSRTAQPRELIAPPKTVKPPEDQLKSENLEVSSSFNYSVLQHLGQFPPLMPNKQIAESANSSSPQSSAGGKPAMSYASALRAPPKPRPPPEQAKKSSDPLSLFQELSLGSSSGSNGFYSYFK
# These are yes or no findings as the source states them, for the method shown. Binding seen in cells or lysates may run through a third protein. Some results given as binding are weak or reduced against the parent protein; the word gives no strength. Sequences can lack the tags named with a protein.
# B1: FLAG-tagged ZNFN3A1 (pFLAG-CMV-ZNFN3A1, Full) (protein, not shown: small tags and cut ends)
# chain: MEPLKVEKFATANRGNGLRAVTPLRPGELLFRSDPLAYTVCKGSRGVVCDRCLLGKEKLMRCSQCRVAKYCSAKCQKKAWPDHKRECKCLKSCKPRYPPDSVRLLGRVVFKLMDGAPSESEKLYSFYDLESNINKLTEDKKEGLRQLVMTFQHFMREEIQDASQLPPAFDLFEAFAKVICNSFTICNAEMQEVGVGLYPSISLLNHSCDPNCSIVFNGPHLLLRAVRDIEVGEELTICYLDMLMTSEERRKQLRDQYCFECDCFRCQTQDKDADMLTGDEQVWKEVQESLKKIEELKAHWKWEQVLAMCQAIISSNSERLPDINIYQLKVLDCAMDACINLGLLEEALFYGTRTMEPYRIFFPGSHPVRGVQVMKVGKLQLHQGMFPQAMKNLRLAFDIMRVTHGREHSLIEDLILLLEECDANIRAS
# Experiments:
# [1] = molecular target: HA-tagged KIAA0054 (pCMV-HA-KIAA0054, Full length) (UniProt P42694); assay: co-immunoprecipitation from HeLa lysate, immunoblot
# [2] = molecular target: HA-tagged KIAA0054 (pCMV-HA-KIAA0054, Full length) (UniProt P42694); assay: co-immunoprecipitation from HeLa lysate with anti-FLAG or anti-HA, immunoblot (FIG. 7C)
binder,measurement,setting,value
B1,binding,[1],binds
same,binding,[2],binds
